Data published in the supplement of paper PMC12823440, “Inhibitors supercharge kinase turnover through native proteolytic circuits” (Nature, 2025).
This is one part of the list. Hit calls seldom repeat between salt and free forms of one compound.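 Kinases were expressed as nanoluciferase fusions in K562 cells and luminescence was read every 4 h between 2 and 18 h as percent of control, DMSO set to 100% and a positive control to 0%. A time point counts as decreased when the signal drops significantly (2 sigma). The hit call is the authors' own, does not follow from the count of time points alone, and its rule is not shown.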

The chains behind the UniProt entries cited, without tags or fusion partners. Where a name states a change or a piece, a line headed by the entry shows the natural chain unless it says otherwise.
UniProt P07949, whole entry, looked up: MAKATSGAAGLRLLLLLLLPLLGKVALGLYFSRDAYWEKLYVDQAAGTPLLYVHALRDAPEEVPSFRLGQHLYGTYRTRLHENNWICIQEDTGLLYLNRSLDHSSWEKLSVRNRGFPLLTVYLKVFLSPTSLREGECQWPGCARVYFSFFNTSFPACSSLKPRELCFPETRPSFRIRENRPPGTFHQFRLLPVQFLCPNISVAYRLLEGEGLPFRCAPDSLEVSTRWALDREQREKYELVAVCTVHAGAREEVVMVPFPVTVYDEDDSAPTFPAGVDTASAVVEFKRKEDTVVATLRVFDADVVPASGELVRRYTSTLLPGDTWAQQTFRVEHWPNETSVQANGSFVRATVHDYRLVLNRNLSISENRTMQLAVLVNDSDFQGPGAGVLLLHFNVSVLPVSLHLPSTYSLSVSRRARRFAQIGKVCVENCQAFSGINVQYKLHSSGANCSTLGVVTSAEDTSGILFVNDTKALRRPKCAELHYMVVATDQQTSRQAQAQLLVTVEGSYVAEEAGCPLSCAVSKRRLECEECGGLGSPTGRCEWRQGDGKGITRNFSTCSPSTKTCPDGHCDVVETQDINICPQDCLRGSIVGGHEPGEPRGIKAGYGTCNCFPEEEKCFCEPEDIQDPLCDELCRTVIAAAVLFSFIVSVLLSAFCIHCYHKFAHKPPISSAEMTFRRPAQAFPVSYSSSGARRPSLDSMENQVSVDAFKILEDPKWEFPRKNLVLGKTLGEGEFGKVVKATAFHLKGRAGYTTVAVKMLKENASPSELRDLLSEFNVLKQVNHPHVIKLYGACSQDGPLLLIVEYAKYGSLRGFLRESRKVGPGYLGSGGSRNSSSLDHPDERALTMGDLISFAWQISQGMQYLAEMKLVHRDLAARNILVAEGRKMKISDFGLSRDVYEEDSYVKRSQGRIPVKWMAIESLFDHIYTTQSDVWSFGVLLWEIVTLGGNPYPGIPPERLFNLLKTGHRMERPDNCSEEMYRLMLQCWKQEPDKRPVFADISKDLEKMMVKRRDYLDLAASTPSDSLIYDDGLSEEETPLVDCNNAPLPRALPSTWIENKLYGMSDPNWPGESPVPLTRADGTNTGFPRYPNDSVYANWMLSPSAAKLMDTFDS
UniProt P07949, whole entry M918T, looked up: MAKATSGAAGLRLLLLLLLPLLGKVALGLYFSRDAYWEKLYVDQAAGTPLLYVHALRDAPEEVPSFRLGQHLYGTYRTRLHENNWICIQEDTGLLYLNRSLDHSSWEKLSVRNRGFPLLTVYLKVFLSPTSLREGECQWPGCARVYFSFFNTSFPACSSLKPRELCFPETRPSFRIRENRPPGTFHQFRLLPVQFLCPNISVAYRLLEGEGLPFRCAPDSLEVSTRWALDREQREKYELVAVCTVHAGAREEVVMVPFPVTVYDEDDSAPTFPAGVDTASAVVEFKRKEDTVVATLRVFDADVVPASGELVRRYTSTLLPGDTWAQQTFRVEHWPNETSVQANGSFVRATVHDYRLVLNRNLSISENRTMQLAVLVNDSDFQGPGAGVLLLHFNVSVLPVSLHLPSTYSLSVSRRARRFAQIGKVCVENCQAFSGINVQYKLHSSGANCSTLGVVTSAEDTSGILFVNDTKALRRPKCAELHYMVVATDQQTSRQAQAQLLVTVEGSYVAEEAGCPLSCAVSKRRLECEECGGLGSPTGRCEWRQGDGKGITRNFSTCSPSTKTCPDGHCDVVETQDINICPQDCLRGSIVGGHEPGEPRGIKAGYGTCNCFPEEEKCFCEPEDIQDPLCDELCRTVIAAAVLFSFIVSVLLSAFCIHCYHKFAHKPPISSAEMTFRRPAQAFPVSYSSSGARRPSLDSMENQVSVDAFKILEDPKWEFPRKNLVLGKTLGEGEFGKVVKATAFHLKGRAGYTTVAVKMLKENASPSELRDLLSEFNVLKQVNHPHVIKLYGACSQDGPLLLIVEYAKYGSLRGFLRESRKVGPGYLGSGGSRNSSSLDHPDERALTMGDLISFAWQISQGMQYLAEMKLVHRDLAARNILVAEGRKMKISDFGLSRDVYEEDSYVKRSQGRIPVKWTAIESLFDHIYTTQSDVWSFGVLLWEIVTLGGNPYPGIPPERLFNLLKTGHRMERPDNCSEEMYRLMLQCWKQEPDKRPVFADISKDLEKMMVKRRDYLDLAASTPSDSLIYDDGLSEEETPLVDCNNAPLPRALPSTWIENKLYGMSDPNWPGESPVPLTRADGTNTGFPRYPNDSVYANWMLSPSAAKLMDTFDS
UniProt Q9BRS2: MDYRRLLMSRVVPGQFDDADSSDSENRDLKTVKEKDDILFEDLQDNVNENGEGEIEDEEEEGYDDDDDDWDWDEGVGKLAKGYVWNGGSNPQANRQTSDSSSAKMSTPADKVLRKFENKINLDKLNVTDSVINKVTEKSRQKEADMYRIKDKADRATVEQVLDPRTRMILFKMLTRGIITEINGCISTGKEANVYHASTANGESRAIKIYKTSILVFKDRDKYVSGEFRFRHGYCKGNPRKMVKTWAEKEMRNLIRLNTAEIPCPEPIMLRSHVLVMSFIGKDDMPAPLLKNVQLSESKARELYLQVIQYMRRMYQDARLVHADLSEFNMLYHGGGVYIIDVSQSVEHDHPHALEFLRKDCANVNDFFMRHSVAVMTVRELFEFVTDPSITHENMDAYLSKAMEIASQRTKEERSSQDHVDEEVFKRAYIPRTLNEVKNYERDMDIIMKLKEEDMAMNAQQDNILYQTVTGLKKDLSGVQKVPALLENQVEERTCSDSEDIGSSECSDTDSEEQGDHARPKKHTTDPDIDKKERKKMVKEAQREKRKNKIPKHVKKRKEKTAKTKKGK
UniProt Q15418, whole entry: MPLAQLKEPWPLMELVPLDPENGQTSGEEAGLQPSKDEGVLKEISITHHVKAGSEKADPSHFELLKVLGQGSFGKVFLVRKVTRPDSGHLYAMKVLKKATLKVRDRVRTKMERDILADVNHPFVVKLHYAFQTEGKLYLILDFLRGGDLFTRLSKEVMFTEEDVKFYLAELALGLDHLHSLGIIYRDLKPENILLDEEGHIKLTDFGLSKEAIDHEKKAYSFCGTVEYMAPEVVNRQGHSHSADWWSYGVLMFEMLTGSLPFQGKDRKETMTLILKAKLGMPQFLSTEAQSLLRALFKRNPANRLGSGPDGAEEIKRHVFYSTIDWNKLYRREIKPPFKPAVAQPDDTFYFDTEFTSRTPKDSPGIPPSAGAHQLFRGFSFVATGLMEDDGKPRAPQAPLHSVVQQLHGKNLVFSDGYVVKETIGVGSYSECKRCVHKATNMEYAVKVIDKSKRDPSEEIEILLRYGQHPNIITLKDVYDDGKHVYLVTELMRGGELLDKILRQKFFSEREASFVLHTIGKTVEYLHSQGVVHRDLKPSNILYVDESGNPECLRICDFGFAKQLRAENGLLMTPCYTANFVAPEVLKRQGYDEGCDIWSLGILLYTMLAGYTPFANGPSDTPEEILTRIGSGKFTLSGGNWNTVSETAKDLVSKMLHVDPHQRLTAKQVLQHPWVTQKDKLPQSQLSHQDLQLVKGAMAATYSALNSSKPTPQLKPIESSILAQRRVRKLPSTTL
UniProt Q9NYA1, whole entry: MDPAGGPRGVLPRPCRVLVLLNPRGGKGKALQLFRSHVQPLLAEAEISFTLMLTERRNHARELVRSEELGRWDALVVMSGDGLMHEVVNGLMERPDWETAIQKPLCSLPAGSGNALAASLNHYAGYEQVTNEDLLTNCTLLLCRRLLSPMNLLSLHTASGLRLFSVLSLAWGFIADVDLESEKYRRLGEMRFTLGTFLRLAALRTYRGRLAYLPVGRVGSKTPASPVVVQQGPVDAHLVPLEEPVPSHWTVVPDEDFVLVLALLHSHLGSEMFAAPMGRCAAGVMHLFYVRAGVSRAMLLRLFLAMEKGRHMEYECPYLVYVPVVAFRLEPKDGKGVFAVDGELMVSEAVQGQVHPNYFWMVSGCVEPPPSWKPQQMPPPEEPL
UniProt Q9Y6E0: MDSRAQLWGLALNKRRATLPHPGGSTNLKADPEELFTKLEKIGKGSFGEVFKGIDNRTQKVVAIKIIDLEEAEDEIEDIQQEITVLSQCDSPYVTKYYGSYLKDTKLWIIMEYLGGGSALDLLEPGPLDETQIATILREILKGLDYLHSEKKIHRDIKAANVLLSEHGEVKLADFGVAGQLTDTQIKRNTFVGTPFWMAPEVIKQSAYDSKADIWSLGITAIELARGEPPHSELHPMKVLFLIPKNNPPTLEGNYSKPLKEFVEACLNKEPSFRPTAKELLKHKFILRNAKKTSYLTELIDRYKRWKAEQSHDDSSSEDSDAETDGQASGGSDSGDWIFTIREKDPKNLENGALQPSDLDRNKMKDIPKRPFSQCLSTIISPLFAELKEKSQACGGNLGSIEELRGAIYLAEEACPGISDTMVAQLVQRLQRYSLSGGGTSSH
UniProt Q15208: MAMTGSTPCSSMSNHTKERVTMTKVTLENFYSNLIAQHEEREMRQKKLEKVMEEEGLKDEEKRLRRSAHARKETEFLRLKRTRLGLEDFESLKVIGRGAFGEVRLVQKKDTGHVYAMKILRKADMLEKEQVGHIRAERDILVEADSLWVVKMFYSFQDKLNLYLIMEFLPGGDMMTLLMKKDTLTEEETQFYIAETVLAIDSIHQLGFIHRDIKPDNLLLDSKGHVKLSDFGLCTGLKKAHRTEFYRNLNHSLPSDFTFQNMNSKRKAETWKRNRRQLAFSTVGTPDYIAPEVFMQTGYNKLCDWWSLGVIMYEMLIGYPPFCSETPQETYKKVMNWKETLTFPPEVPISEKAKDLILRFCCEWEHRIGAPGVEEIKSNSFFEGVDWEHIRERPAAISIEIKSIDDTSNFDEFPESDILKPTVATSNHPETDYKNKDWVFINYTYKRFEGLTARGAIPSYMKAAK
UniProt Q6PHR2: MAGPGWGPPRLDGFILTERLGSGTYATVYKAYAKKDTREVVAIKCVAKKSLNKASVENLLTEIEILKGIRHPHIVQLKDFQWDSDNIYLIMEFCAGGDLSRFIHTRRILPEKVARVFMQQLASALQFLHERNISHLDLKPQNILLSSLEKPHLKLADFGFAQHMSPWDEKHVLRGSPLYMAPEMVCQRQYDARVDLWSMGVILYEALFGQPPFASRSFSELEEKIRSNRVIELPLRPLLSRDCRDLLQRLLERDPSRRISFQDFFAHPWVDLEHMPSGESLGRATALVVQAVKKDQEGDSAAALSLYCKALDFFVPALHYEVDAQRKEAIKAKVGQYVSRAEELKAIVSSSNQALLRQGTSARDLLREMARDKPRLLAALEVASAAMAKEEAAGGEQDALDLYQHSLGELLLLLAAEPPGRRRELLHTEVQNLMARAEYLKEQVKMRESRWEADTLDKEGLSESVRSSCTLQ
UniProt P00519, whole entry: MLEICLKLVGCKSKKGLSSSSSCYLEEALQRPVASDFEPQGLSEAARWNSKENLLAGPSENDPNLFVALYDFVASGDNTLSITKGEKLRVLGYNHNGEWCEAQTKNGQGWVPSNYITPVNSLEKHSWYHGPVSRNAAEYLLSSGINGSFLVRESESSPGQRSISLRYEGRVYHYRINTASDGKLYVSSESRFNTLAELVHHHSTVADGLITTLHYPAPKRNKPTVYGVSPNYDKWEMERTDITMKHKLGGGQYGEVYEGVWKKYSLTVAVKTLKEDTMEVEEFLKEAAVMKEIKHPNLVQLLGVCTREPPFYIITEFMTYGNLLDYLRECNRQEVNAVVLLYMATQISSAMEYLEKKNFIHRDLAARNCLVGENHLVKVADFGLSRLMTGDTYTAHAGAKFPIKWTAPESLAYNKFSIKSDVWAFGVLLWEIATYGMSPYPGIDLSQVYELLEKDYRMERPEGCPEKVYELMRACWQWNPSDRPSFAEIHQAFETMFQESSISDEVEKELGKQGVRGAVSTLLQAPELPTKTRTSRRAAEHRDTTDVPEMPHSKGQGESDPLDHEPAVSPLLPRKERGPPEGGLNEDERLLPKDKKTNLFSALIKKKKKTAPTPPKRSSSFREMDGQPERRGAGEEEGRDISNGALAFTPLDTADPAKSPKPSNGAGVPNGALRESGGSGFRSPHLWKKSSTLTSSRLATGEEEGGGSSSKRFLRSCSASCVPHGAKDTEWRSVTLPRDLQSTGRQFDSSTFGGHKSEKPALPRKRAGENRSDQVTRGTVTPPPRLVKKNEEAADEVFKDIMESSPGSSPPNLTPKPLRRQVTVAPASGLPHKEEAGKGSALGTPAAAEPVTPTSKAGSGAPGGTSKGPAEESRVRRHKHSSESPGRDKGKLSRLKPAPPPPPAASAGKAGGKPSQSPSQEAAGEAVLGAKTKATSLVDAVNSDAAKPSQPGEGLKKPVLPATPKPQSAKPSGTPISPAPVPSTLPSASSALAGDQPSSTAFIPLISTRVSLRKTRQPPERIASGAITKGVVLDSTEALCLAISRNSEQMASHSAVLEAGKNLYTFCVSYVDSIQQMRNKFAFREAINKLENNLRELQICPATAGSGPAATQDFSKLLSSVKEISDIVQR

Legend:
Details in all cases: K562; 2-18 h
RET = RET (UniProt P07949); assay: kinase-Nluc reporter destabilization hit call (1 = scored as downregulated) (binary); higher = compound decreases kinase abundance
[1] = molecular target: RET_M918T (clone: RET_mut) (UniProt P07949); assay: as above
RIOK1 = RIOK1 (UniProt Q9BRS2); assay: as above
RIPK1 = RIPK1 (UniProt Q13546); assay: as above
RIPK2 = RIPK2 (UniProt O43353); assay: as above
ROR2 = ROR2 (UniProt Q01974); assay: as above
RPS6KA1 = RPS6KA1 (UniProt Q15418); assay: as above
SPHK1 = SPHK1 (UniProt Q9NYA1); assay: as above
SRC = SRC (UniProt P12931); assay: as above
STK24 = STK24 (UniProt Q9Y6E0); assay: as above
STK38 = STK38 (UniProt Q15208); assay: as above
SYK = SYK (UniProt P43405); assay: as above
TEC = TEC (UniProt P42680); assay: as above
TYK2 = TYK2 (UniProt P29597); assay: as above
ULK3 = ULK3 (UniProt Q6PHR2); assay: as above
YES1 = YES1 (UniProt P07947); assay: as above
ZAK = ZAK (UniProt Q9NYL2); assay: as above
ZAP70 = ZAP70 (UniProt P43403); assay: as above
ABL1 = ABL1 (UniProt P00519); assay: number of time points (of 5) at which kinase-Nluc abundance scored as decreased, DMSO-normalised (count); higher = more persistent destabilization
AKT1 = AKT1 (UniProt P31749); assay: as above

O=c1[nH]c(=O)n([C@@H]2O[C@H](CO)[C@@H](O)[C@@H]2O)cc1/C=C/Br [Sorivudine] (10 µM)
inactive: kinase-Nluc reporter destabilization hit call (RET) 0 | kinase-Nluc reporter destabilization hit call [1] 0 | kinase-Nluc reporter destabilization hit call (RIOK1) 0 | kinase-Nluc reporter destabilization hit call (RIPK1) 0 | kinase-Nluc reporter destabilization hit call (RIPK2) 0 | kinase-Nluc reporter destabilization hit call (ROR2) 0 | kinase-Nluc reporter destabilization hit call (RPS6KA1) 0 | kinase-Nluc reporter destabilization hit call (SPHK1) 0 | kinase-Nluc reporter destabilization hit call (SRC) 0 | kinase-Nluc reporter destabilization hit call (STK24) 0 | kinase-Nluc reporter destabilization hit call (STK38) 0 | kinase-Nluc reporter destabilization hit call (SYK) 0 | kinase-Nluc reporter destabilization hit call (TEC) 0 | kinase-Nluc reporter destabilization hit call (TYK2) 0 | kinase-Nluc reporter destabilization hit call (ULK3) 0 | kinase-Nluc reporter destabilization hit call (YES1) 0 | kinase-Nluc reporter destabilization hit call (ZAK) 0 | kinase-Nluc reporter destabilization hit call (ZAP70) 0
0: number of time points (ABL1) | number of time points (AKT1)

COc1ncc(Cl)cc1S(=O)(=O)Nc1ccc(F)c(C#Cc2cnc(N)nc2)c1F (2.5 µM)
0: number of time points (ABL1) | number of time points (AKT1)
inactive: kinase-Nluc reporter destabilization hit call (RET) 0 | kinase-Nluc reporter destabilization hit call [1] 0 | kinase-Nluc reporter destabilization hit call (RIOK1) 0 | kinase-Nluc reporter destabilization hit call (RIPK1) 0 | kinase-Nluc reporter destabilization hit call (RIPK2) 0 | kinase-Nluc reporter destabilization hit call (ROR2) 0 | kinase-Nluc reporter destabilization hit call (RPS6KA1) 0 | kinase-Nluc reporter destabilization hit call (SPHK1) 0 | kinase-Nluc reporter destabilization hit call (SRC) 0 | kinase-Nluc reporter destabilization hit call (STK24) 0 | kinase-Nluc reporter destabilization hit call (STK38) 0 | kinase-Nluc reporter destabilization hit call (SYK) 0 | kinase-Nluc reporter destabilization hit call (TEC) 0 | kinase-Nluc reporter destabilization hit call (TYK2) 0 | kinase-Nluc reporter destabilization hit call (ULK3) 0 | kinase-Nluc reporter destabilization hit call (YES1) 0 | kinase-Nluc reporter destabilization hit call (ZAK) 0 | kinase-Nluc reporter destabilization hit call (ZAP70) 0

NC(=O)c1nnc(N[C@@H]2CCCC[C@@H]2N)nc1Nc1cccc2cc[nH]c12 (10 µM)
1: number of time points (ABL1)
0: number of time points (AKT1)
inactive: kinase-Nluc reporter destabilization hit call (RET) 0 | kinase-Nluc reporter destabilization hit call [1] 0 | kinase-Nluc reporter destabilization hit call (RIOK1) 0 | kinase-Nluc reporter destabilization hit call (RIPK1) 0 | kinase-Nluc reporter destabilization hit call (RIPK2) 0 | kinase-Nluc reporter destabilization hit call (ROR2) 0 | kinase-Nluc reporter destabilization hit call (RPS6KA1) 0 | kinase-Nluc reporter destabilization hit call (SPHK1) 0 | kinase-Nluc reporter destabilization hit call (SRC) 0 | kinase-Nluc reporter destabilization hit call (STK24) 0 | kinase-Nluc reporter destabilization hit call (STK38) 0 | kinase-Nluc reporter destabilization hit call (SYK) 0 | kinase-Nluc reporter destabilization hit call (TEC) 0 | kinase-Nluc reporter destabilization hit call (TYK2) 0 | kinase-Nluc reporter destabilization hit call (ULK3) 0 | kinase-Nluc reporter destabilization hit call (YES1) 0 | kinase-Nluc reporter destabilization hit call (ZAK) 0 | kinase-Nluc reporter destabilization hit call (ZAP70) 0

Cn1cc(-c2cnn3c(N)c(Br)c([C@@H]4CCCNC4)nc23)cn1 (2.5 µM)
inactive: kinase-Nluc reporter destabilization hit call (RET) 0 | kinase-Nluc reporter destabilization hit call [1] 0 | kinase-Nluc reporter destabilization hit call (RIOK1) 0 | kinase-Nluc reporter destabilization hit call (RIPK1) 0 | kinase-Nluc reporter destabilization hit call (RIPK2) 0 | kinase-Nluc reporter destabilization hit call (ROR2) 0 | kinase-Nluc reporter destabilization hit call (RPS6KA1) 0 | kinase-Nluc reporter destabilization hit call (SPHK1) 0 | kinase-Nluc reporter destabilization hit call (SRC) 0 | kinase-Nluc reporter destabilization hit call (STK24) 0 | kinase-Nluc reporter destabilization hit call (STK38) 0 | kinase-Nluc reporter destabilization hit call (SYK) 0 | kinase-Nluc reporter destabilization hit call (TEC) 0 | kinase-Nluc reporter destabilization hit call (TYK2) 0 | kinase-Nluc reporter destabilization hit call (ULK3) 0 | kinase-Nluc reporter destabilization hit call (YES1) 0 | kinase-Nluc reporter destabilization hit call (ZAK) 0 | kinase-Nluc reporter destabilization hit call (ZAP70) 0
0: number of time points (AKT1)
2: number of time points (ABL1)

C[C@@H]1CCN(C(=O)CC#N)C[C@@H]1N(C)c1ncnc2[nH]ccc12 [Tofacitinib] (10 µM)
inactive: kinase-Nluc reporter destabilization hit call (RET) 0 | kinase-Nluc reporter destabilization hit call [1] 0 | kinase-Nluc reporter destabilization hit call (RIOK1) 0 | kinase-Nluc reporter destabilization hit call (RIPK1) 0 | kinase-Nluc reporter destabilization hit call (RIPK2) 0 | kinase-Nluc reporter destabilization hit call (ROR2) 0 | kinase-Nluc reporter destabilization hit call (RPS6KA1) 0 | kinase-Nluc reporter destabilization hit call (SPHK1) 0 | kinase-Nluc reporter destabilization hit call (SRC) 0 | kinase-Nluc reporter destabilization hit call (STK24) 0 | kinase-Nluc reporter destabilization hit call (STK38) 0 | kinase-Nluc reporter destabilization hit call (TEC) 0 | kinase-Nluc reporter destabilization hit call (TYK2) 0 | kinase-Nluc reporter destabilization hit call (ULK3) 0 | kinase-Nluc reporter destabilization hit call (YES1) 0 | kinase-Nluc reporter destabilization hit call (ZAK) 0 | kinase-Nluc reporter destabilization hit call (ZAP70) 0
0: number of time points (ABL1) | number of time points (AKT1)

CN(CC(=O)N(Cc1ccc(C2CCCCC2)cc1)c1ccc(C(=O)NO)cc1)S(=O)(=O)c1c(F)c(F)c(F)c(F)c1F (2.5 µM)
0: number of time points (ABL1) | number of time points (AKT1)
inactive: kinase-Nluc reporter destabilization hit call (RET) 0 | kinase-Nluc reporter destabilization hit call [1] 0 | kinase-Nluc reporter destabilization hit call (RIOK1) 0 | kinase-Nluc reporter destabilization hit call (RIPK1) 0 | kinase-Nluc reporter destabilization hit call (RIPK2) 0 | kinase-Nluc reporter destabilization hit call (ROR2) 0 | kinase-Nluc reporter destabilization hit call (RPS6KA1) 0 | kinase-Nluc reporter destabilization hit call (SPHK1) 0 | kinase-Nluc reporter destabilization hit call (SRC) 0 | kinase-Nluc reporter destabilization hit call (STK24) 0 | kinase-Nluc reporter destabilization hit call (STK38) 0 | kinase-Nluc reporter destabilization hit call (SYK) 0 | kinase-Nluc reporter destabilization hit call (TEC) 0 | kinase-Nluc reporter destabilization hit call (TYK2) 0 | kinase-Nluc reporter destabilization hit call (ULK3) 0 | kinase-Nluc reporter destabilization hit call (YES1) 0 | kinase-Nluc reporter destabilization hit call (ZAK) 0 | kinase-Nluc reporter destabilization hit call (ZAP70) 0

Cc1[nH]c(/C=C2\C(=O)Nc3ccc(F)cc32)c(C)c1C(=O)N[C@H]1CCN(C(=O)N(C)C)C1 [Vorolanib] (10 µM)
0: number of time points (ABL1) | number of time points (AKT1)
inactive: kinase-Nluc reporter destabilization hit call (RET) 0 | kinase-Nluc reporter destabilization hit call [1] 0 | kinase-Nluc reporter destabilization hit call (RIOK1) 0 | kinase-Nluc reporter destabilization hit call (RIPK1) 0 | kinase-Nluc reporter destabilization hit call (RIPK2) 0 | kinase-Nluc reporter destabilization hit call (ROR2) 0 | kinase-Nluc reporter destabilization hit call (RPS6KA1) 0 | kinase-Nluc reporter destabilization hit call (SPHK1) 0 | kinase-Nluc reporter destabilization hit call (SRC) 0 | kinase-Nluc reporter destabilization hit call (STK24) 0 | kinase-Nluc reporter destabilization hit call (STK38) 0 | kinase-Nluc reporter destabilization hit call (SYK) 0 | kinase-Nluc reporter destabilization hit call (TEC) 0 | kinase-Nluc reporter destabilization hit call (TYK2) 0 | kinase-Nluc reporter destabilization hit call (ULK3) 0 | kinase-Nluc reporter destabilization hit call (YES1) 0 | kinase-Nluc reporter destabilization hit call (ZAK) 0 | kinase-Nluc reporter destabilization hit call (ZAP70) 0

COc1ccc(Cl)c(Nc2nc3ccccc3nc2NS(=O)(=O)c2cccc(NC(=O)C(C)(C)N)c2)c1 [Pilaralisib] (10 µM)
inactive: kinase-Nluc reporter destabilization hit call (RET) 0 | kinase-Nluc reporter destabilization hit call [1] 0 | kinase-Nluc reporter destabilization hit call (RIOK1) 0 | kinase-Nluc reporter destabilization hit call (RIPK1) 0 | kinase-Nluc reporter destabilization hit call (RIPK2) 0 | kinase-Nluc reporter destabilization hit call (ROR2) 0 | kinase-Nluc reporter destabilization hit call (RPS6KA1) 0 | kinase-Nluc reporter destabilization hit call (SPHK1) 0 | kinase-Nluc reporter destabilization hit call (SRC) 0 | kinase-Nluc reporter destabilization hit call (STK24) 0 | kinase-Nluc reporter destabilization hit call (STK38) 0 | kinase-Nluc reporter destabilization hit call (SYK) 0 | kinase-Nluc reporter destabilization hit call (TEC) 0 | kinase-Nluc reporter destabilization hit call (TYK2) 0 | kinase-Nluc reporter destabilization hit call (ULK3) 0 | kinase-Nluc reporter destabilization hit call (YES1) 0 | kinase-Nluc reporter destabilization hit call (ZAK) 0 | kinase-Nluc reporter destabilization hit call (ZAP70) 0
0: number of time points (ABL1) | number of time points (AKT1)
